# PMC2887854
# Chains of the proteins cited; added tags and fusions are not shown. Lines headed by an entry give the natural chain unless they say otherwise; changes in a name come on top. A line that says so, or that is headed by a name, gives the form on record, which may keep a tag or linker. Residues count along the entry.
# TEM8 extracellular vWA domain (residues 38-220) with the C177A mutation, called WT (Q9H6X2-1, form named): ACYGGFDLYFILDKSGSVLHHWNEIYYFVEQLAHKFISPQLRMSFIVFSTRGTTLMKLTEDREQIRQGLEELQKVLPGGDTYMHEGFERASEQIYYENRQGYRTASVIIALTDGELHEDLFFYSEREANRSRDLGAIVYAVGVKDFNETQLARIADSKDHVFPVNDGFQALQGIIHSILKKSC
# These are yes or no findings as the source states them, for the method shown.
# Columns and labels:
# [1] = molecular target: TEM8 extracellular vWA domain (residues 38-220) with the C177A mutation, called WT (human) (UniProt Q9H6X2); assay: SEC; gel filtration of TEM8 vWA domain in solution; both purified
# [2] = molecular target: TEM8 extracellular vWA domain (residues 38-220) with the C177A mutation, called WT (human) (UniProt Q9H6X2); assay: AUC; both purified
# [3] = molecular target: TEM8 extracellular vWA domain (residues 38-220) with the C177A mutation, called WT (human) (UniProt Q9H6X2); assay: crystal structure; both purified
substance,measurement,setting,value
"TEM8 extracellular vWA domain (residues 38-220) with the C177A mutation, called WT (from UniProt Q9H6X2-1 38-220) (domain or fragment)",binding,[1],no binding
same,binding,[2],no binding (tested: 1 mg/ml)
same,binding,[3],no binding
